doi:10.1101/2025.09.18.676991

B1: STOML2, endogenous (protein, UniProt Q9UJZ1-2 29-311)
chain: SSGLPRNTVVLFVPQQEAWVVERMGRFHRILEPGLNILIPVLDRIRYVQSLKEIVINVPEQSAVTLDNVTLQIDGVLYLRIMDPYKASYGVEDPEYAVTQLAQTTMRSELGKLSLDKVFRVEAERRKRATVLESEGTRESAINVAEGKKQAQILASEAEKAEQINQAAGEASAVLAKAKAKAEAIRILAAALTQHNGDAAASLTVAEQYVSAFSKLAKDSNTILLPSNPGDVTSMVAQAMGVYGALTKAPVPGTPDSLSSGSSRDVQGTDASLDEELDRVKMS
B2: protein phosphatase Mg2+/Mn2+-dependent 1G (PPM1G), endogenous (enzyme, UniProt O15355 1-546)
chain: MGAYLSQPNTVKCSGDGVGAPRLPLPYGFSAMQGWRVSMEDAHNCIPELDSETAMFSVYDGHGGEEVALYCAKYLPDIIKDQKAYKEGKLQKALEDAFLAIDAKLTTEEVIKELAQIAGRPTEDEDEKEKVADEDDVDNEEAALLHEEATMTIEELLTRYGQNCHKGPPHSKSGGGTGEEPGSQGLNGEAGPEDSTRETPSQENGPTAKAYTGFSSNSERGTEAGQVGEPGIPTGEAGPSCSSASDKLPRVAKSKFFEDSEDESDEAEEEEEDSEECSEEEDGYSSEEAENEEDEDDTEEAEEDDEEEEEEMMVPGMEGKEEPGSDSGTTAVVALIRGKQLIVANAGDSRCVVSEAGKALDMSYDHKPEDEVELARIKNAGGKVTMDGRVNGGLNLSRAIGDHFYKRNKNLPPEEQMISALPDIKVLTLTDDHEFMVIACDGIWNVMSSQEVVDFIQSKISQRDENGELRLLSSIVEELLDQCLAPDTSGDGTGCDNMTCIIICFKPRNTAELQPESGKRKLEEVLSTEGAEENGNSDKKKKAKRD

What was measured:
[1] = biological target: Flag-tagged IBV RdRp (Group a) (influenza B virus); assay: affinity purification with mass spectrometry
[2] = biological target: Flag-tagged IBV vRNP (Group b) (influenza B virus); assay: affinity purification with mass spectrometry

| Binder | binding [1] | binding [2] |
| --- | --- | --- |
| B1 | binds | binds |
| B2 | binds | binds |

Results are given in words; binding and its absence hold for the method and conditions named. Binding seen in cells or lysates may run through a third protein. These calls come from enrichment with a bait or labelling near it, and not all partners need be listed.
